Experimental data taken from PubChem BioAssay AID1347426 (Functional Genomics Laboratory (NCATS/FGL), 2020).
The campaign covered roughly 31,000 sequences. About 1,400 (4.5%) were called active.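 How the source made its calls: active means median seed-adjusted z-score above 1 or below -1; inactive means the rest.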 The list shows a part of the results.

Test: Novel Modifiers of Survival Motor Neuron (SMN) Protein: Gene Identification via Genome-wide siRNA Screen;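 further: luminescence tracks full-length SMN protein made from the SMN2 reporter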
Conditions: HEK293T SMN2-luciferase reporter, siRNA knockdown, 72 h; actives lie on both sides
Summary of the method: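 Each of three siRNAs per gene is reverse-transfected (1 pmol) into reporter HEK293T cells whose luciferase output tracks SMN protein level. After 72 h culture, ONE-Glo luminescence is control-normalized, log10-transformed and MAD-standardized; Common Seed Analysis deprioritizes seed-driven hits.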

Sequence | median seed-adjusted z-score
CAGCAGAGGAUGAACCCAATT against ZFYVE27 | inactive: 0.0439
GGAAGGCAGAUGUAUCUUUTT against CMPK1 | inactive: -0.363
UCCUUGUUGUGGACAGGGATT against SPINK4 | inactive: -0.0134
GGCAAUUGAUAAGAAGGUATT against RAPGEF1 | inactive: 0.304
GCAGUUGAAUUAUCACAGUTT against UQCRFS1 | active: -1.28
GAAACUUAAUAAGCUGAUUTT against DNAJC3 | inactive: 0.502
CCAAGUUUAUAUCAUAUUATT against GNG4 | inactive: -0.188
GCAGAAUUACAUAAACGAATT against KL | inactive: -0.267
CCCUAACUUUGUUCGUUGUTT against MYH10 | inactive: 0.0877
CGCCUGCUACUUUUACGAATT against FZD10 | inactive: -0.226
CUCAUCCAUUCUUACCAAATT against UGT2B10 | inactive: 0.989
GCUCUAUGUAUGCAUUGAATT against ZNF585A | inactive: -0.168
CAUGCUUUGUCCUAGAGAATT against MAGED1 | inactive: 0.524
CAUUUUAGAUGGGCACAAUTT against GOSR2 | active: -1.25
GGACAAGAAUGAGCUCAGUTT against HSF1 | inactive: 0
GCUCUGUUUUCUACGUCUATT against SLC17A7 | inactive: -0.0794
AGUCCUUAAUGACCACCGATT against HDAC7 | inactive: -0.41
CUAUAUCCGCUUCUGUUUUTT against CCBL1 | inactive: -0.0496
CAAACGGACCAAAACAUCUTT against RNF2 | inactive: 0.354
CCAGGUGGGCAAAACUUAATT against VN1R4 | inactive: -0.0601
AGAGUACGUUGGAAAACUUTT against IL4 | inactive: -0.192
GCCGAGUGUUUGUCCAUGATT against CLCA2 | inactive: 0.669

Sequence | median seed-adjusted z-score
CUGAGAACGUGGAGUUUAATT against SIRPG | inactive: -0.109
CCACAACAGUGUUACGAAUTT against ZEB2 | inactive: 0.854
GGCUAGUUAUAAAGCAGGATT against ZNF621 | inactive: 0
GGGUUAUCCUUGGAUUCAATT against DERL1 | inactive: 0.22
GGAACUUGGUUGUAGAGCUTT against SVIL | inactive: 0.0852
GGAUUACUACUUAAACAGATT against ECE2 | inactive: 0.794
GAAGUAUAUUGGUAUCCGATT against HTRA1 | inactive: 0.031
AGACCACGCAGCUCAUUGATT against SIGLEC1 | inactive: -0.153
GAGUUUAUCAUGCUGGACATT against CHST6 | inactive: 0.372
CAACUUCGAUUAUCUUCAATT against DCK | inactive: 0.123
GGUUAUGACAACACCGAAATT against CLASP1 | inactive: 0.0472
UGGUCAAGGUGUUUGAGAATT against SFRS17A | inactive: -0.389
GGCUGUUGGUAACCUGAGATT against TF | inactive: 0.192
AGAUCGUGGUGCAUCCAUATT against ELA1 | inactive: 0.687
GUUGCGACGUGAAUGGGAATT against PCSK5 | inactive: -0.158
CCGUAUCGGCGACAAACUATT against MPP7 | inactive: 0.163
CGAGUAUGGUUUCCGCAAATT against UHMK1 | inactive: -0.269
CGCCGACGGCUUUGUCAAATT against JUNB | inactive: -0.224
GGCUUUGCCGAAGAAAACATT against KDSR | inactive: -0.108
GAAAUACGGUUAUACAUCUTT against SIGLEC6 | inactive: 0.0176
CCAACGAACUCCUUACUUATT against SCP2 | inactive: 0.413
GGUUCCGAAUCUAUUCCAATT against PLTP | active: 1.09

Quoted at random: four records from the list.
Sequence | median seed-adjusted z-score
GAAAUACGGUUAUACAUCUTT against SIGLEC6 | inactive: 0.0176
GGAACUUGGUUGUAGAGCUTT against SVIL | inactive: 0.0852
CCACAACAGUGUUACGAAUTT against ZEB2 | inactive: 0.854
CCGUAUCGGCGACAAACUATT against MPP7 | inactive: 0.163

Additional records.

Sequence | median seed-adjusted z-score
UCACUUGUCUCUAGCCGCATT against ATP5G2 | inactive: 0
GAAGGACCGUGAACCUAUATT against CYP4F11 | inactive: 0.307
CCAAUAUUGUGGAUCCUUUTT against HTR4 | inactive: 0.444
GGUAGCUAGUUGUUUCAGATT against IFT88 | inactive: 0.189
GCCUCUCUCUAGCUCGAUUTT against ZBTB7B | inactive: -0.242
GACCCUGACUGGAAAGUAUTT against MOV10 | inactive: 0.0759
GAAGCAAUCUCAGUGGUUATT against LCOR | inactive: -0.0435
GGAUAUCAGUAUUGACAAATT against ASAP1 | inactive: 0.0592
AACUCUUCAUGGGACGAUUTT against PLA2G4F | inactive: -0.0231
GGUCAUCUUUCCGGAUAAATT against RGL4 | inactive: 0.201
CCAGGAUGUUUUUCGAAAUTT against GNPTAB | inactive: 0.296
GCCUGAAAUUUACACGAAUTT against DNTT | inactive: 0.316
GGAAAGCAUUCUGCUCUUUTT against CST3 | inactive: -0.188
GUAUGAUUGAUACUACAAATT against GBP6 | inactive: -0.0703
CAAAAUCCUUUGUGAGUAATT against GPR174 | inactive: -0.324
CCACCCUGCAGAAUCCUGUTT against CALML6 | inactive: 0.0119
AGAUCAUGCCUGAAGCUCATT against PPFIA4 | inactive: 0.0399
GACUAUUUGUUCAAGAUUATT against RAB19 | inactive: -0.0516
CGAGUACCGGGUCAAGAUATT against PLXND1 | inactive: -0.064
GGAGCGGAAUGAACUCAAATT against RILP | inactive: 0.503
AUGGAUAUGUGAAACCACATT against STAT5A | inactive: -0.229
CGGUUGACACGGAUGGAAATT against CALML5 | inactive: -0.175

Sequence | median seed-adjusted z-score
GAACAUAUGUGAUGACCGUTT against CDH2 | inactive: -0.235
GAAUGGACUGGUACCUAUUTT against ALDOB | active: -1.34
UGACAUCUUUGAGCGCAUCTT against HIST1H2BO | inactive: 0.634
GGAAGUGAAAGGAUCAAGATT against RAD54B | inactive: -0.257
GAAAUUGACUGCUCGAGUATT against SRPX2 | inactive: 0.101
GGAGUGAGAUCGUCGUAUUTT against DZIP1 | inactive: -0.138
CCUUACCACUCUUCGAGUATT against USP33 | inactive: -0.63
GAACAUCGCAUAAUCCUGATT against ORC1L | inactive: -0.536
GUUCGGAACUGAUACGAUUTT against DSG4 | inactive: -0.0211
GGUCUAUGCUGCGCUCAUATT against DOCK2 | inactive: 0.151
GGACUUCUUUUGUCAUGCATT against BCKDHB | inactive: 0.366
GGAUUCAAGUUCGAAAUAUTT against ATP5C1 | inactive: -0.0179
GAAAGAGCCUGUUACCUAUTT against ACTR1A | active: 1.28
GGACGUGUCUAUUAUGUUGTT against WWP2 | inactive: -0.685
ACAUGAAGGUGAAUCCUGUTT against COX4I2 | inactive: -0.0202
UGGACAUGCUGAACCCGGATT against ESPN | inactive: 0
GAACCAGAUAUCUUGAAAATT against ZNF251 | inactive: -0.851
CAAUAAGCUUUGCAAUCAATT against SFRS8 | inactive: -0.353
CCUGCGCAGUAACAAUGAATT against SLC9A4 | inactive: 0.693
GGAUUGAGCGCAUCAAGGUTT against GNG7 | inactive: -0.205
GCACAAGCGAGAUCCUCUATT against SLC10A4 | inactive: 0.069
CACGAGCUGCGCUACAGUATT against TSEN34 | inactive: 0.918

Sequence | median seed-adjusted z-score
GACAAGUCUUAAUCAACUATT against PGR | inactive: -0.0249
CUUCAAUCCUCUAGACUUUTT against PTTG1 | inactive: -0.459
GGUUGGUGGUUUUGGGCUATT against OXCT1 | inactive: 0.133
CAUCGAGUCUGUACCUACATT against GPHB5 | inactive: -0.533
CUGGUGCAGUCAAACCGGATT against HSF1 | inactive: 0
AGUAUGUGCUGAUCCGAGUTT against PHPT1 | active: 1.27
GCCUGUUACAGAUGACAUATT against BRD8 | inactive: -0.133
CCAUCGACCUUAAUACUUUTT against GALNT6 | inactive: -0.287
GCAAGUGAAUAUGCGGAUATT against SNRPE | active: -2.77
CACCUCCAGUAAGACCUUATT against ZNF625 | inactive: -0.0711
UGGUUUACAUGUUCCAAUATT against GAPDH | inactive: 0.479
GAGUCAUCAUGAGUGUCAATT against ACADS | inactive: 0.121
CCACGAACUUGAAUCAAUUTT against NEK11 | inactive: 0.181
GGUGUUCGGAAAAUAGUAATT against DHX36 | inactive: 0.165
CCAUGUGAUUAUGUACUCATT against ELOVL4 | inactive: 0.166
GGGUGAAACUAGAAUUCGATT against SPINK5 | inactive: 0.26
CGUGUAUUUUCUAACUAUUTT against FHL5 | inactive: 0.0859
CAAUAAAUCGUGACAAUGGTT against PCDHGC3 | inactive: 0
CCCUAGCAUUAAGAAACAATT against FOXR2 | inactive: 0.593
CAUAGGAGAUUCAAUUAUATT against NAT1 | inactive: -0.0665

2 entries from above, as tab-separated lines.
Sequence	median seed-adjusted z-score
GAAGCAAUCUCAGUGGUUATT against LCOR	inactive: -0.0435
GGAUAUCAGUAUUGACAAATT against ASAP1	inactive: 0.0592
